Test results taken from the supplement of paper PMC3334620.
Whole data set: some 33,000 sequences, median “E-score (-0.5 to 0.5)” near -0.0014, cut for the highest 2% near 0.25. This is one part of the list.

These sequences were tested against T1, Cad1 (UniProt P24813) (assay: PBM E-score (8-mer binding enrichment) (E-score (-0.5 to 0.5)); higher = stronger / more preferred TF binding). Settings: protein concentration: 100 nM; construct: GST-full length.
T1 sequence: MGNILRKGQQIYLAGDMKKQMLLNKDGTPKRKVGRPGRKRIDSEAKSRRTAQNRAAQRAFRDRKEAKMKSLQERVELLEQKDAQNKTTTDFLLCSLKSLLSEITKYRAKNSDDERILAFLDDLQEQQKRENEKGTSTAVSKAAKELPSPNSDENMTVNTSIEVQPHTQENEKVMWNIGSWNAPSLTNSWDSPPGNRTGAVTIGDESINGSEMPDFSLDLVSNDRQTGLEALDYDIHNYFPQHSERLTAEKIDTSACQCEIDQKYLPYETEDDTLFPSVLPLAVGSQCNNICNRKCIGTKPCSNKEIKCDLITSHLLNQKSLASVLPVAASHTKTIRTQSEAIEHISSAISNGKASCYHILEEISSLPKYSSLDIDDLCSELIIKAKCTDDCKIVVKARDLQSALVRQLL
Method in brief: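 Each ungapped eight-base word and its reverse complement, pooled, received an E-score from the Universal PBM Analysis Suite. Underlying scans, normalised with masliner, recorded fluorescent anti-GST bound to GST-tagged yeast transcription factors. These were applied at about 100-200 nM to universal all-10-mer Agilent arrays double-stranded by primer extension.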

| Sequence | PBM E-score |
| --- | --- |
| AGGGACTG | -0.0624 |
| ATACGCGG | -0.0649 |
| ATAGCCCG | -0.245 |
| ACGATTAG | 0.225 |
| GTGTTTAA | 0.233 |
| GCAAAAGA | -0.0108 |
| CTGTTGCC | -0.123 |
| GACTTTTA | -0.17 |
| ATAGACCG | -0.0498 |
| CTAACGAA | 0.153 |
| GGGTGAAC | -0.0927 |
| CTGTTCGA | -0.08 |
| AAGTGATT | 0.166 |
| ATTCCTCC | -0.145 |
| CTGCCGTC | -0.121 |
| GAAATCCA | 0.164 |
| GGTTAATA | 0.119 |
| CAGCTGGG | -0.113 |
| CTTCGCTC | 0.0256 |
| CTCCGCAC | 0.0372 |
| GCCCTCAC | -0.163 |
| TAATCAGA | 0.233 |

| Sequence | PBM E-score |
| --- | --- |
| CATTTCAC | -0.0255 |
| CATCTGCC | -0.0636 |
| CGCTCTCC | -0.172 |
| ACATGAAT | -0.0876 |
| CCTGGGGC | -0.343 |
| AACTGCTC | 0.0289 |
| AGATTCCC | 0.0124 |
| ACGATGGG | -0.16 |
| CTATAACA | -0.121 |
| CCCCTCCA | -0.106 |
| AGGCTTAT | 0.00167 |
| ATAACGGA | 0.155 |
| ATAGCCTA | -0.029 |
| GTCTTAGA | -0.0522 |
| CGTGCAAC | 0.0988 |
| AATACAGG | 0.207 |
| GCTGCTAA | 0.0581 |
| GGGTTACC | -0.237 |
| AACAGATC | 0.16 |
| GTTGGCTA | -0.0101 |
| ACGCGCCC | 0.0144 |
| CCATTATC | 0.0253 |

| Sequence | PBM E-score |
| --- | --- |
| CCAGTCCG | -0.184 |
| AAAGGGGG | -0.344 |
| TTGACAAA | 0.294 |
| ACCTGATA | 0.147 |
| CCCGTTCA | -0.183 |
| CCAACAGG | -0.268 |
| CTATATAC | 0.27 |
| ACGATCCC | -0.208 |
| CCAAGCGG | -0.224 |
| GGTACTAA | 0.0433 |
| ACAATCGT | 0.00707 |
| GTGGCTAA | 0.146 |
| ACACGAGT | 0.149 |
| AGAGCAAG | 0.13 |
| CGGAATTA | 0.203 |
| GCGGTATA | 0.104 |
| CGTCCATA | 0.112 |
| GGCCACCA | 0.0862 |
| AGATCACA | -0.0498 |
| AAGGCTAT | -0.152 |
| AGGCAGAA | -0.106 |
| CATGTGGC | 0.105 |

An excerpt from the list above, for reference:

| Sequence | PBM E-score |
| --- | --- |
| AAAGGGGG | -0.344 |
| TTGACAAA | 0.294 |
| ACCTGATA | 0.147 |
| CCCGTTCA | -0.183 |
| CCAACAGG | -0.268 |
| CTATATAC | 0.27 |
| ACGATCCC | -0.208 |
| CCAAGCGG | -0.224 |
| GGTACTAA | 0.0433 |
| ACAATCGT | 0.00707 |
| GTGGCTAA | 0.146 |
| ACACGAGT | 0.149 |
| AGAGCAAG | 0.13 |
| CGGAATTA | 0.203 |
| GCGGTATA | 0.104 |
| CGTCCATA | 0.112 |
| GGCCACCA | 0.0862 |
| AGATCACA | -0.0498 |
| AAGGCTAT | -0.152 |

The results go on:

| Sequence | PBM E-score |
| --- | --- |
| CCCGAAAG | -0.0143 |
| ATTGCAAG | -0.00256 |
| GGCGCGCC | 0.172 |
| ACTACAAT | 0.173 |
| AGAGATCC | -0.104 |
| CTAGCCGC | 0.0492 |
| CCACTTAC | 0.0959 |
| AATCAAAC | 0.215 |
| CCCCCCGG | -0.428 |
| GGTTCATA | 0.0159 |
| ATAACACG | -0.0288 |
| ATTTCCCA | 0.156 |
| AGGCATCC | -0.195 |
| GGAAGTTA | 0.0734 |
| CGATCTAC | -0.0444 |
| GTTGCTAA | 0.223 |
| CTGTGAAG | -0.0744 |
| CGAACAGC | -0.0486 |
| CCTGTTAC | -0.139 |
| CCCTGTGA | -0.161 |
